This passage reports binding results from paper PMC6393709.

Amino acid sequences for entries named in this document (tags omitted).
UniProt P09874: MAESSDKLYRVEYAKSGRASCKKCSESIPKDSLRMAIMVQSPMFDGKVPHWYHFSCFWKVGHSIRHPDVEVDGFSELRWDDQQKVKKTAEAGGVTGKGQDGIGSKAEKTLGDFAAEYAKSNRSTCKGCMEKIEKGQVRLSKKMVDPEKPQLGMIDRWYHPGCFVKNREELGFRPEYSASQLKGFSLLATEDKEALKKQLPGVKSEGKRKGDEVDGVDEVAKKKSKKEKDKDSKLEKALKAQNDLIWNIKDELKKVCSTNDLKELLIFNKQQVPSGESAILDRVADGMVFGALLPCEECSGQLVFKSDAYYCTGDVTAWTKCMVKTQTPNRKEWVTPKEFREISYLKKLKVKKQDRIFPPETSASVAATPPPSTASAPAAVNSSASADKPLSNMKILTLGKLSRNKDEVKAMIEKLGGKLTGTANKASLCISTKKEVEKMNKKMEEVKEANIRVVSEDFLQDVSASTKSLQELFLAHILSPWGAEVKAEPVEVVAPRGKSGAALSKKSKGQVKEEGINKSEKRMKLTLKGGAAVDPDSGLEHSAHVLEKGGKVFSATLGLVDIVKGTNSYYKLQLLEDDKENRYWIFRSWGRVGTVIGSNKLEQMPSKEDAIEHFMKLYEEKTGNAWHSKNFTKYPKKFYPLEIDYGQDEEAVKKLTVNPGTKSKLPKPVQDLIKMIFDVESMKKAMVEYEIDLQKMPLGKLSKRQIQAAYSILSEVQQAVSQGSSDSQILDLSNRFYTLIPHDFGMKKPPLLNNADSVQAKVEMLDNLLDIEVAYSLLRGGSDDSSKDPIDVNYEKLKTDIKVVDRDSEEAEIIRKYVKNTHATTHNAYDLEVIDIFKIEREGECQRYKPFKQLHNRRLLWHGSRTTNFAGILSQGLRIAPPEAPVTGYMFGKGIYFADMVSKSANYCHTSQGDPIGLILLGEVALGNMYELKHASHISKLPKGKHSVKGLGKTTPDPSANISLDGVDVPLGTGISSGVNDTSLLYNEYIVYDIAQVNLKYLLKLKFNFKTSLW

The assay addresses T1, BCR (human (endogenous in K562)) (UniProt P11274).
T1 sequence: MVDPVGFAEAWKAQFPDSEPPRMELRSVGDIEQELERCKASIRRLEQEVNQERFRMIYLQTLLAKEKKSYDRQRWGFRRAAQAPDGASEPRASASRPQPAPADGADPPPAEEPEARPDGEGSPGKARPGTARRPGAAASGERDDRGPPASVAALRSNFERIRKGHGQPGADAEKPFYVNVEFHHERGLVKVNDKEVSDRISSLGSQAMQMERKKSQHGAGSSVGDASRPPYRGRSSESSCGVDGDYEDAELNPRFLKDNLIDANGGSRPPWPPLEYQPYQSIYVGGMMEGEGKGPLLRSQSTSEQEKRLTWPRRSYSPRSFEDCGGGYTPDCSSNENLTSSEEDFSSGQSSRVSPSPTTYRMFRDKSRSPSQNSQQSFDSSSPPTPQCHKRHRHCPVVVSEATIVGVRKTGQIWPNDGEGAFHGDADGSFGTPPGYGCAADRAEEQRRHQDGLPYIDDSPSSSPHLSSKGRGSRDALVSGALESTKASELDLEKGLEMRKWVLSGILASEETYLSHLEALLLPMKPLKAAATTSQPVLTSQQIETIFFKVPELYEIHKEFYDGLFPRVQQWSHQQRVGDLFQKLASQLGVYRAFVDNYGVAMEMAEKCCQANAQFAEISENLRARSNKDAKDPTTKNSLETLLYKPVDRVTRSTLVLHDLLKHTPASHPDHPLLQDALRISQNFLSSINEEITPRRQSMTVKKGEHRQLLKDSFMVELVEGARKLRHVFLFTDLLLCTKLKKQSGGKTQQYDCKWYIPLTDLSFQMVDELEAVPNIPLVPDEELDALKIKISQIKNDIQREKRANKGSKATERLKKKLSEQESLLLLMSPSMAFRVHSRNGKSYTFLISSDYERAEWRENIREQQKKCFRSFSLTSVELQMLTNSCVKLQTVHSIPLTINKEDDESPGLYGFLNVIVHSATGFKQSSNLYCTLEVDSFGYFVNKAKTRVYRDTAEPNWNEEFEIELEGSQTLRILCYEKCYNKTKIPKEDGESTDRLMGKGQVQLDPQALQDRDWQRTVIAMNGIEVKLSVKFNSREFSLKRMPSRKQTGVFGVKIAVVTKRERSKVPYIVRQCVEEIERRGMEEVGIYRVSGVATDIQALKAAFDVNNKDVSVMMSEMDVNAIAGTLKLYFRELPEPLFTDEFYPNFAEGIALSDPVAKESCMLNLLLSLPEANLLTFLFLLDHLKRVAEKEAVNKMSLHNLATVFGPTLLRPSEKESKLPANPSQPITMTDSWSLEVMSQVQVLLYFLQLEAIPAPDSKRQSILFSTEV
In words: affinity purification with mass spectrometry; anti-FLAG affinity purification from K562-Flag PPFIA1 cells and anti-BCR IP from K562 cells; IP products separated by SDS-PAGE and analysed by mass spectrometry.

Results are given in words; binding and its absence hold for the method and conditions named. In cells and extracts the contact can be indirect. These calls come from enrichment with a bait or labelling near it, and not all partners need be listed.

For the substance PARP1 (from UniProt P09874 1-1014), the binding entry is listed as “binds”.
